# Laboratory results published in IntAct's records for PubMed 25910212.
# B1: Adiponectin (Homo sapiens), Q15848 (parent)
# chain: MLLLGAVLLLLALPGHDQETTTQGPGVLLPLPKGACTGWMAGIPGHPGHNGAPGRDGRDGTPGEKGEKGDPGLIGPKGDIGETGVPGAEGPRGFPGIQGRKGEPGEGAYVYRSAFSVGLETYVTIPNMPIRFTKIFYNQQNHYDGSTGKFHCNIPGLYYFAYHITVYMKDVKVSLFKKDKAMLFTYDQYQENNVDQASGSVLLHLEVGDQVWLQVYGEGERNGLYADNDNDSTFTGFLLYHDTN
# Variants of: B1
# Conditions: with bni3l_human BNIP3L
row,Variant,effect of a mutation on the interaction
1,R112C,with no effect
